Assay results taken from paper PMC4297300, “Different binding motifs of the celiac disease-associated HLA molecules DQ2.5, DQ2.2, and DQ7.5 revealed by relative quantitative proteomics of endogenous peptide repertoires” (Immunogenetics, 2014).

System: HLA-DQ7.5 (DQA1*05, DQB1*03:01)
Test: Elution of endogenous peptides from affinity-purified HLA-DQ7.5, relative quantitative LC-MS/MS
Set-up: species or system human
Conditions: peptides acid-eluted from DQ7.5 purified with anti-DQ SPV-L3 from B-LCLs 9037 SWEIG, 9064 AMALA, 9089 BOB; MaxQuant ion peak volume divided by sum of all identified peptides per sample; twenty most abundant

Sequence	Normalized ion peak volume (%)
ASFEAQGALANIAVDK [endogenous MHC class II DRA peptide eluted from DQ7.5]	1.1
ASFEAQGALANIAVDKA [endogenous MHC class II DRA peptide eluted from DQ7.5]	1.7
ATPLLMQALPMGALPQGP [endogenous CD74 peptide eluted from DQ7.5]	0.7
ATPLLMQALPMGALPQGPM [endogenous CD74 peptide eluted from DQ7.5]	0.7
IEKVEHSDLSFSKD [endogenous β2-microglobulin peptide eluted from DQ7.5]	0.6
IEKVEHSDLSFSKDWS [endogenous β2-microglobulin peptide eluted from DQ7.5]	0.7
IPELNKVARAAAEVAG [endogenous transferrin receptor peptide eluted from DQ7.5]	0.6
IPELNKVARAAAEVAGQF [endogenous transferrin receptor peptide eluted from DQ7.5]	1.3
LMQALPMGALPQGP [endogenous CD74 peptide eluted from DQ7.5]	0.6
LPKPPKPVSKMRMATPLLMQALP [endogenous CD74 (CLIP) peptide eluted from DQ2.5, DQ2.2 and DQ7.5]	1.1
NPGGYVAYSKAATVTG [endogenous transferrin receptor peptide eluted from DQ7.5]	1.5
NPGGYVAYSKAATVTGK [endogenous transferrin receptor peptide eluted from DQ7.5]	1.3
NPGGYVAYSKAATVTGKL [endogenous transferrin receptor peptide eluted from DQ7.5]	1.7
SFEAQGALANIAVDKA [endogenous MHC class II DRA peptide eluted from DQ7.5]	0.7
TPLLMQALPMGALPQ [endogenous CD74 peptide eluted from DQ7.5]	2.5
TPLLMQALPMGALPQGP [endogenous CD74 peptide eluted from DQ7.5]	1.5
TPLLMQALPMGALPQGPM [endogenous CD74 peptide eluted from DQ7.5]	1.4
VDNALQSGNSQESVTEQ [endogenous Ig kappa chain C region peptide eluted from DQ7.5]	0.8
VPVPQFGGGDPADIIHD [endogenous integral membrane protein 2C peptide eluted from DQ7.5]	1.4
VPVPQFGGGDPADIIHDF [endogenous integral membrane protein 2C peptide eluted from DQ7.5]	1.3
